# Test results reported in the supplement of paper PMC4604168 (melanoma cell lines).
# This is one part of the list. Single values are uncertain, as repeats are few or missing.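 Imaging used 1,536-well plates; nuclei positive for cleaved PARP by antibody were divided by total DNA-stained nuclei to yield the apoptosis fraction. Doses for screening kept most cells viable, and cell lines differ markedly in resting and induced cleaved-PARP levels.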
# Legend:
# Test in all cases: cleaved PARP positive nuclei fraction relative to DMSO control; melanoma cells; higher = more apoptosis
# Settings in all cases: library dose: low library concentration; 72 h
# [1] = system: MZ2-MEL
# [2] = system: MeWo
# [3] = system: RPMI7951
# [4] = system: RVH-421
# [5] = system: SkMel28
# [6] = system: SkMel30
# [7] = system: SkMel5
# [8] = system: UACC257
# [9] = system: UACC62
Structure (SMILES),cleaved PARP positive nuclei fraction [1] [%],cleaved PARP positive nuclei fraction [2] [%],cleaved PARP positive nuclei fraction [3] [%],cleaved PARP positive nuclei fraction [4] [%],cleaved PARP positive nuclei fraction [5] [%],cleaved PARP positive nuclei fraction [6] [%],cleaved PARP positive nuclei fraction [7] [%],cleaved PARP positive nuclei fraction [8] [%],cleaved PARP positive nuclei fraction [9] [%]
"C#Cc1cccc(Nc2ncnc3cc(OCCOC)c(OCCOC)cc23)c1 [erlotinib] + COC(=O)c1sccc1S(=O)(=O)Nc1ccc(Nc2ccccc2)cc1OC [GSK0660] (first compound 0.8 µM, partner dose 1 µM)",111,48.2,179,64.3,72.8,48.1,67,238,151
"CC(C)(C)c1cnc(CSc2cnc(NC(=O)C3CCNCC3)s2)o1 + O=C(Nc1ccccc1)c1cc([N+](=O)[O-])ccc1Cl [GW9662] (first compound 0.01 µM, partner dose 2 µM)",91.3,126,92.4,120,42.6,246,54.2,98.9,96
"Cn1cncc1[C@@](N)(c1ccc(Cl)cc1)c1ccc2c(c1)c(-c1cccc(Cl)c1)cc(=O)n2C [tipifarnib] + COC(=O)c1sccc1S(=O)(=O)Nc1ccc(Nc2ccccc2)cc1OC [GSK0660] (first compound 0.01 µM, partner dose 1 µM)",176,111,111,41.7,126,123,95.5,136,71.8
"CO[C@@H]1[C@H](N(C)C(=O)c2ccccc2)C[C@H]2O[C@]1(C)n1c3ccccc3c3c4c(c5c6ccccc6n2c5c31)C(=O)NC4 [Midostaurin] + CCN(CC)CCCCNc1ncc2cc(-c3cc(OC)cc(OC)c3)c(NC(=O)NC(C)(C)C)nc2n1 [PD173074] (first compound 0.08 µM, partner dose 0.1 µM)",145,52.6,41,65.7,56.3,76.1,29.9,208,81.4
"Cn1c(Nc2ccc(C(F)(F)F)cc2)nc2cc(Oc3ccnc(-c4ncc(C(F)(F)F)[nH]4)c3)ccc21 + O=C(O)C(=O)Nc1sc2c(c1C(=O)O)CCNC2 [TCS401] (first compound 0.08 µM, partner dose 1.66667 µM)",224,142,68,110,178,32.3,80.8,1000,75.5
"C#Cc1cccc(Nc2ncnc3cc(OCCOC)c(OCCOC)cc23)c1 [erlotinib] + Cc1cc([N+](=O)[O-])ccc1NS(=O)(=O)c1cc(Cl)ccc1Cl [FH535] (first compound 0.8 µM, partner dose 1 µM)",68.8,115,50.5,60.7,164,28.3,60.6,176,130
"C=CCn1c(=O)c2cnc(Nc3ccc(N4CCN(C)CC4)cc3)nc2n1-c1cccc(C(C)(C)O)n1 + COc1cc(N2CCC(N3CCN(C)CC3)CC2)ccc1Nc1ncc(Cl)c(Nc2ccccc2S(=O)(=O)C(C)C)n1 [NVP-TAE684] (first compound 0.02 µM, partner dose 0.08 µM)",91.2,43.2,37.3,42.9,317,110,68.7,224,212
"C[C@@H]1CCN(C(=O)CC#N)C[C@@H]1N(C)c1ncnc2[nH]ccc12 + O=C1NC(=O)/C(=C/c2ccc(-c3ccc(F)cc3O)o2)S1 [AS252424] (first compound 1 µM, partner dose 1 µM)",87.5,268,82.8,23.7,153,27.5,57,49.5,106
"Cc1nc(Nc2ncc(C(=O)Nc3c(C)cccc3Cl)s2)cc(N2CCN(CCO)CC2)n1 [dasatanib] + COc1ccc2c(c1)CCC1C2CCC2(C)C(NCCCCCCN3C(=O)C=CC3=O)CCC12 [U73122] (first compound 0.004 µM, partner dose 0.4 µM)",53.9,123,192,73.9,191,20.1,45.5,234,120
"C=CCn1c(=O)c2cnc(Nc3ccc(N4CCN(C)CC4)cc3)nc2n1-c1cccc(C(C)(C)O)n1 + N#Cc1c(O)c2c(-c3ccc(-c4ccccc4O)cc3)csc2[nH]c1=O [A769662] (first compound 0.02 µM, partner dose 2 µM)",135,34.1,178,84,186,188,66.1,99.4,160
"Cn1cncc1[C@@](N)(c1ccc(Cl)cc1)c1ccc2c(c1)c(-c1cccc(Cl)c1)cc(=O)n2C [tipifarnib] + COc1cc2ncnc(Nc3ccc(Oc4ccccc4)cc3)c2cc1OC [SrcI1] (first compound 0.01 µM, partner dose 2 µM)",30.6,158,168,82.8,181,28.4,58.3,103,109
"Cn1cncc1[C@@](N)(c1ccc(Cl)cc1)c1ccc2c(c1)c(-c1cccc(Cl)c1)cc(=O)n2C [tipifarnib] + O=S(=O)(c1ccccc1)N(CC(F)(F)F)c1ccc(C(O)(C(F)(F)F)C(F)(F)F)cc1 [T0901317] (first compound 0.01 µM, partner dose 1.4 µM)",64.8,65.4,46.1,123,99.2,11.5,41.4,191,286
"Cn1cncc1[C@@](N)(c1ccc(Cl)cc1)c1ccc2c(c1)c(-c1cccc(Cl)c1)cc(=O)n2C [tipifarnib] + Cc1cc([N+](=O)[O-])ccc1NS(=O)(=O)c1cc(Cl)ccc1Cl [FH535] (first compound 0.01 µM, partner dose 1 µM)",82.9,74.5,153,183,131,28.8,64,188,149
"COc1cc(Nc2ncc(F)c(Nc3ccc4c(n3)NC(=O)C(C)(C)O4)n2)cc(OC)c1OC [Tamatinib] + CC(C)CCN1c2nc(Nc3cc(F)c(O)c(F)c3)ncc2N(C)C(=O)C1C [BID1870] (first compound 0.4 µM, partner dose 0.2 µM)",108,57.4,46.1,17.6,153,282,168,260,193
"C=CCn1c(=O)c2cnc(Nc3ccc(N4CCN(C)CC4)cc3)nc2n1-c1cccc(C(C)(C)O)n1 + O=c1cc(-c2cccc3c2Sc2ccccc2S3)oc(N2CCOCC2)c1 [KU55933] (first compound 0.02 µM, partner dose 1 µM)",173,54.9,165,102,36.3,536,139,89.5,82.2
"C[C@@H]1CCN(C(=O)CC#N)C[C@@H]1N(C)c1ncnc2[nH]ccc12 + CCCCCCCCCCCC1=C(O)C(=O)C=C(O)C1=O [Embelin] (first compound 1 µM, partner dose 1.2 µM)",85.7,154,64.4,22.3,130,53.1,29.7,83.3,25.4
"O=C(Nc1cccc(Cl)c1)Nc1ncc(CCNc2ncnc3ccsc23)s1 + c1cc(-c2cnn3cc(-c4ccc(OCCN5CCCCC5)cc4)cnc23)ccn1 [Dorsomorphin] (first compound 0.0008 µM, partner dose 0.4 µM)",29.1,148,83.5,71.3,78.2,13.4,30.9,127,129
"C[C@@H]1CCN(C(=O)CC#N)C[C@@H]1N(C)c1ncnc2[nH]ccc12 + COC(=O)c1sccc1S(=O)(=O)Nc1ccc(Nc2ccccc2)cc1OC [GSK0660] (first compound 1 µM, partner dose 1 µM)",119,169,47.6,73.3,142,49.2,134,66.7,291
"OCCn1cc(-c2cnc3nnn(Cc4ccc5ncccc5c4)c3n2)cn1 + CCCCCCCCCCCC1=C(O)C(=O)C=C(O)C1=O [Embelin] (first compound 1 µM, partner dose 1.2 µM)",131,116,43.7,46.4,127,55.1,83.8,140,30.8
"OCCn1cc(-c2cnc3nnn(Cc4ccc5ncccc5c4)c3n2)cn1 + O=C1NC(=O)/C(=C/c2ccc(-c3ccc(F)cc3O)o2)S1 [AS252424] (first compound 1 µM, partner dose 1 µM)",156,56.8,143,87.5,106,46.5,155,62,129
"CC1(C)NC(=O)N(c2ccc([N+](=O)[O-])c(C(F)(F)F)c2)C1=O [nilutamide] + COc1cc(N2CCC(N3CCN(C)CC3)CC2)ccc1Nc1ncc(Cl)c(Nc2ccccc2S(=O)(=O)C(C)C)n1 [NVP-TAE684] (first compound 1 µM, partner dose 0.08 µM)",28,57.1,79,70.4,113,10.5,45.7,252,244

# 2 entries from above, with bars between the fields:
Structure (SMILES) | cleaved PARP positive nuclei fraction [1] [%] | cleaved PARP positive nuclei fraction [2] [%] | cleaved PARP positive nuclei fraction [3] [%] | cleaved PARP positive nuclei fraction [4] [%] | cleaved PARP positive nuclei fraction [5] [%] | cleaved PARP positive nuclei fraction [6] [%] | cleaved PARP positive nuclei fraction [7] [%] | cleaved PARP positive nuclei fraction [8] [%] | cleaved PARP positive nuclei fraction [9] [%]
Cn1cncc1[C@@](N)(c1ccc(Cl)cc1)c1ccc2c(c1)c(-c1cccc(Cl)c1)cc(=O)n2C [tipifarnib] + COC(=O)c1sccc1S(=O)(=O)Nc1ccc(Nc2ccccc2)cc1OC [GSK0660] (first compound 0.01 µM, partner dose 1 µM) | 176 | 111 | 111 | 41.7 | 126 | 123 | 95.5 | 136 | 71.8
COc1cc(Nc2ncc(F)c(Nc3ccc4c(n3)NC(=O)C(C)(C)O4)n2)cc(OC)c1OC [Tamatinib] + CC(C)CCN1c2nc(Nc3cc(F)c(O)c(F)c3)ncc2N(C)C(=O)C1C [BID1870] (first compound 0.4 µM, partner dose 0.2 µM) | 108 | 57.4 | 46.1 | 17.6 | 153 | 282 | 168 | 260 | 193
